Measured values from US6586402B1 (Laboratoire Theramex, priority 1997, dated 2003).
Strings that start with PEPTIDE1 are HELM notation: dots part the residues, brackets hold end groups and non-standard residues.

Assay: solid-phase peptide synthesis
Conditions: whole synthesis

First: PEPTIDE1{[pE].H.W.S.Y.[dL].[Npg].R.P.G.[am]}$$$$V2.0
Second: PEPTIDE1{[pE].H.W.S.Y.[dW].[Npg].R.P.G.[am]}$$$$V2.0
The “final HPLC purity” value of the first is lower: 95.7% for the first, 97.1% for the second.

First: PEPTIDE1{[pE].H.W.S.Y.[dNpg].[Npg].R.P.[NEt]}$$$$V2.0
Second: AcD-Nal-D-pClPhe-D-Pal-Ser-Tyr-D-HCit-Npg-IprLys-Pro-D-Ala-NH2
The “final HPLC purity” value of the first is higher: 96.2% for the first, 95.7% for the second.

Going from “PEPTIDE1{[pE].H.W.S.Y.[dW].[Npg].R.P.[NEt]}$$$$V2.0” to “PEPTIDE1{[ac].[D-Nal].[D-pClPhe].[D-Pal].S.[NicLys].[D-NicLys].[Npg].[IprLys].P.[dA].[am]}$$$$V2.0”, the “final HPLC purity” value falls from 98.4% to 98.3%.

“pGlu-His-Trp-Ser-Tyr-D-Phe-Ada-Arg-Pro-NEt” and “PEPTIDE1{[pE].H.W.S.Y.[dNpg].[Npg].R.P.G.[am]}$$$$V2.0” are the same in “final HPLC purity” value: 97.8% for the first, 97.8% for the second.

Compared with “pGlu-His-Trp-Ser-Tyr-D-Leu-MeNpg-Arg-Pro-NEt”, “PEPTIDE1{[ac].[dNal].[dpClPhe].[dPal].S.Y.[dCit].[Npg].R.P.[dA].[am]}$$$$V2.0” is higher in “final HPLC purity” value: 95.0% for the first, 97.0% for the second.

Going from “pGlu-His-Trp-Ser-Tyr-D-Pal-Npg-Arg-Pro-Gly-NH2” to “pGlu-His-Trp-Ser-Tyr-D-Leu-Ada-Arg-Pro-NEt”, the “final HPLC purity” value falls from 98.6% to 97.3%.

First: PEPTIDE1{[pE].H.W.S.Y.[dNal].[Npg].R.P.[NEt]}$$$$V2.0
Second: pGlu-His-Trp-Ser-Tyr-D-HPhe-Npg-Arg-Pro-Gly-NH2
The “final HPLC purity” value of the first is lower: 97.4% for the first, 97.5% for the second.

Going from “pGlu-His-Bal-Ser-Tyr-D-Leu-Npg-Arg-Pro-NEt” to “PEPTIDE1{[pE].H.W.S.Y.[dF].[Npg].R.P.[NEt]}$$$$V2.0”, the “final HPLC purity” value falls from 97.4% to 96.9%.

Compared with “PEPTIDE1{[pE].H.W.S.Y.[dNal].[Npg].R.P.G.[am]}$$$$V2.0”, “PEPTIDE1{[ac].[dNal].[dpClPhe].[dPal].S.Y.[dCit].[Npg].[IprLys].P.[dA].[am]}$$$$V2.0” is higher in “final HPLC purity” value: 95.6% for the first, 96.4% for the second.

Compared with “pGlu-His-1Nal-Ser-Tyr-D-Leu-Npg-Arg-Pro-NEt”, “PEPTIDE1{[pE].H.W.S.Y.[dF].[Npg].R.P.G.[am]}$$$$V2.0” is lower in “final HPLC purity” value: 98.5% for the first, 96.8% for the second.

Going from “PEPTIDE1{[pE].H.W.S.Y.G.[Npg].R.P.G.[am]}$$$$V2.0” to “pGlu-His-Trp-Ser-Tyr-D-Ala-Ada-Arg-Pro-NEt”, the “final HPLC purity” value rises from 97.2% to 97.4%.

Compared with “PEPTIDE1{[pE].H.W.S.Y.G.[Npg].R.P.[NEt]}$$$$V2.0”, “PEPTIDE1{[pE].H.W.S.Y.[dA].[Npg].R.P.G.[am]}$$$$V2.0” is higher in “final HPLC purity” value: 95.0% for the first, 95.2% for the second.

Compared with “PEPTIDE1{[pE].H.W.S.Y.[dA].[Npg].R.P.[NEt]}$$$$V2.0”, “pGlu-His-Trp-Ser-Tyr-D-4Pal-Npg-Arg-Pro-Gly-NH2” is higher in “final HPLC purity” value: 96.9% for the first, 98.4% for the second.

Compared with “PEPTIDE1{[pE].H.W.S.Y.[dL].[Npg].R.P.[NEt]}$$$$V2.0”, “pGlu-His-2Nal-Ser-Tyr-D-Leu-Npg-Arg-Pro-NEt” is higher in “final HPLC purity” value: 95.3% for the first, 98.0% for the second.

For “pGlu-His-Trp-Ser-Tyr-D-Trp-Ada-Arg-Pro-Gly-NH2”, the “final HPLC purity” value was 95.0%.

First: PEPTIDE1{[pE].H.W.S.Y.[dL].[Npg].R.P.G.[am]}$$$$V2.0
Second: PEPTIDE1{[pE].H.W.S.Y.[dW].[Npg].R.P.G.[am]}$$$$V2.0
The isolated yield of the first is higher: 36% for the first, 7% for the second.

First: PEPTIDE1{[pE].H.W.S.Y.[dNpg].[Npg].R.P.[NEt]}$$$$V2.0
Second: AcD-Nal-D-pClPhe-D-Pal-Ser-Tyr-D-HCit-Npg-IprLys-Pro-D-Ala-NH2
The isolated yield of the first is lower: 4% for the first, 17% for the second.

Compared with “PEPTIDE1{[pE].H.W.S.Y.[dW].[Npg].R.P.[NEt]}$$$$V2.0”, “PEPTIDE1{[ac].[D-Nal].[D-pClPhe].[D-Pal].S.[NicLys].[D-NicLys].[Npg].[IprLys].P.[dA].[am]}$$$$V2.0” is higher in isolated yield: 5% for the first, 31% for the second.

First: pGlu-His-Trp-Ser-Tyr-D-Phe-Ada-Arg-Pro-NEt
Second: PEPTIDE1{[pE].H.W.S.Y.[dNpg].[Npg].R.P.G.[am]}$$$$V2.0
The isolated yield of the first is higher: 14% for the first, 4% for the second.

First: pGlu-His-Trp-Ser-Tyr-D-Leu-MeNpg-Arg-Pro-NEt
Second: PEPTIDE1{[ac].[dNal].[dpClPhe].[dPal].S.Y.[dCit].[Npg].R.P.[dA].[am]}$$$$V2.0
The isolated yield of the first is higher: 17% for the first, 9% for the second.

Compared with “pGlu-His-Trp-Ser-Tyr-D-Pal-Npg-Arg-Pro-Gly-NH2”, “pGlu-His-Trp-Ser-Tyr-D-Leu-Ada-Arg-Pro-NEt” is lower in isolated yield: 29% for the first, 15% for the second.

Going from “PEPTIDE1{[pE].H.W.S.Y.[dNal].[Npg].R.P.[NEt]}$$$$V2.0” to “pGlu-His-Trp-Ser-Tyr-D-HPhe-Npg-Arg-Pro-Gly-NH2”, the isolated yield rises from 22% to 36%.

First: pGlu-His-Bal-Ser-Tyr-D-Leu-Npg-Arg-Pro-NEt
Second: PEPTIDE1{[pE].H.W.S.Y.[dF].[Npg].R.P.[NEt]}$$$$V2.0
The isolated yield of the first is higher: 16% for the first, 4% for the second.

Compared with “PEPTIDE1{[pE].H.W.S.Y.[dNal].[Npg].R.P.G.[am]}$$$$V2.0”, “PEPTIDE1{[ac].[dNal].[dpClPhe].[dPal].S.Y.[dCit].[Npg].[IprLys].P.[dA].[am]}$$$$V2.0” is lower in isolated yield: 50% for the first, 29% for the second.

Going from “pGlu-His-1Nal-Ser-Tyr-D-Leu-Npg-Arg-Pro-NEt” to “PEPTIDE1{[pE].H.W.S.Y.[dF].[Npg].R.P.G.[am]}$$$$V2.0”, the isolated yield rises from 7% to 16%.

“PEPTIDE1{[pE].H.W.S.Y.G.[Npg].R.P.G.[am]}$$$$V2.0” and “pGlu-His-Trp-Ser-Tyr-D-Ala-Ada-Arg-Pro-NEt” are the same in isolated yield: 24% for the first, 24% for the second.

First: PEPTIDE1{[pE].H.W.S.Y.G.[Npg].R.P.[NEt]}$$$$V2.0
Second: PEPTIDE1{[pE].H.W.S.Y.[dA].[Npg].R.P.G.[am]}$$$$V2.0
The isolated yield of the first is lower: 8% for the first, 27% for the second.

First: PEPTIDE1{[pE].H.W.S.Y.[dA].[Npg].R.P.[NEt]}$$$$V2.0
Second: PEPTIDE1{[pE].H.W.S.Y.[dL].[Npg].R.P.[NEt]}$$$$V2.0
The isolated yield of the first is lower: 7% for the first, 20% for the second.

First: pGlu-His-2Nal-Ser-Tyr-D-Leu-Npg-Arg-Pro-NEt
Second: pGlu-His-Trp-Ser-Tyr-D-Trp-Ada-Arg-Pro-Gly-NH2
The isolated yield of the first is lower: 7% for the first, 11% for the second.
